In this assay the target is FLAG-tagged CSL V237R (human) (UniProt Q06330). Put plainly: co-IP; HEK293T cells expressing FLAG-tagged CSL FL, BTD or point mutants plus/minus FL UPF1 or FL Ku70; anti-FLAG M2 magnetic beads, immunoblotting. On the technique in general: A western blot detects proteins with antibodies after separation by electrophoresis.

Protein sequences, listed by entry. Tags and fused reporters are not part of them. Lines headed by an entry give the natural chain unless they say otherwise; changes in a name come on top.
UniProt Q06330: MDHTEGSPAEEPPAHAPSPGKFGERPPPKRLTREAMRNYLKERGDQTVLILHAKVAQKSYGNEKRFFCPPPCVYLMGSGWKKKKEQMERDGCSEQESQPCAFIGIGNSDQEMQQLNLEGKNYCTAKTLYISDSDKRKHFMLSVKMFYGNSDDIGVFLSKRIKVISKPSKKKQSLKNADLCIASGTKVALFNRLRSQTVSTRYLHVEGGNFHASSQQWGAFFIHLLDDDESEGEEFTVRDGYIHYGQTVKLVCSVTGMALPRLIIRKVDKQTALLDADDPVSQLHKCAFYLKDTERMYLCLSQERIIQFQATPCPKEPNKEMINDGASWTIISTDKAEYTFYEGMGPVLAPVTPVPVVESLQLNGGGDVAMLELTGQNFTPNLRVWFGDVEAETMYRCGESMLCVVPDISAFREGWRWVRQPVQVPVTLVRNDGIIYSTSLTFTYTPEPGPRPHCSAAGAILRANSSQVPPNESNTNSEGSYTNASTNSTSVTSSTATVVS
UniProt P12956: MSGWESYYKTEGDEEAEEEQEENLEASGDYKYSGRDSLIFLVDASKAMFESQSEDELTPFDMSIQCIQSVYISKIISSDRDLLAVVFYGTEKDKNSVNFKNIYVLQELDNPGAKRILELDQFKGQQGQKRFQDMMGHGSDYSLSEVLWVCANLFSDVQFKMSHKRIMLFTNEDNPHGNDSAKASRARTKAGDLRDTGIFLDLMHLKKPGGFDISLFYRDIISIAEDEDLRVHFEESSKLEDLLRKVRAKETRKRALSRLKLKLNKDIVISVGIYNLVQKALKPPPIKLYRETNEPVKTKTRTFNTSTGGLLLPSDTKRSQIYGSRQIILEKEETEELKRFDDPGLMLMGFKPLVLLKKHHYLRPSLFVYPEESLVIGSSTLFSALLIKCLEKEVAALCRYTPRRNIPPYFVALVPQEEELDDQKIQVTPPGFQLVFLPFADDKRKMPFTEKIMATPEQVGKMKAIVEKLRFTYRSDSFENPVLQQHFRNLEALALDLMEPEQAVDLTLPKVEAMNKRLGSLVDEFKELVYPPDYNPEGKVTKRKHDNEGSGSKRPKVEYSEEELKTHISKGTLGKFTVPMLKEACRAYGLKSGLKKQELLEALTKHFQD

These are yes or no findings as the source states them, for the method shown. In cells and extracts the contact can be indirect. A result given as binding can be weak or reduced; the word gives no strength.

Regarding “MYC-tagged full length (FL) Ku70 (from UniProt P12956 1-609)”, the binding entry is “binds”.

For the origin of these results see paper PMC6715699.
